In the assay the target is T1, HCN1 (human (endogenous in induced neurons)) (UniProt O60741).
T1 sequence: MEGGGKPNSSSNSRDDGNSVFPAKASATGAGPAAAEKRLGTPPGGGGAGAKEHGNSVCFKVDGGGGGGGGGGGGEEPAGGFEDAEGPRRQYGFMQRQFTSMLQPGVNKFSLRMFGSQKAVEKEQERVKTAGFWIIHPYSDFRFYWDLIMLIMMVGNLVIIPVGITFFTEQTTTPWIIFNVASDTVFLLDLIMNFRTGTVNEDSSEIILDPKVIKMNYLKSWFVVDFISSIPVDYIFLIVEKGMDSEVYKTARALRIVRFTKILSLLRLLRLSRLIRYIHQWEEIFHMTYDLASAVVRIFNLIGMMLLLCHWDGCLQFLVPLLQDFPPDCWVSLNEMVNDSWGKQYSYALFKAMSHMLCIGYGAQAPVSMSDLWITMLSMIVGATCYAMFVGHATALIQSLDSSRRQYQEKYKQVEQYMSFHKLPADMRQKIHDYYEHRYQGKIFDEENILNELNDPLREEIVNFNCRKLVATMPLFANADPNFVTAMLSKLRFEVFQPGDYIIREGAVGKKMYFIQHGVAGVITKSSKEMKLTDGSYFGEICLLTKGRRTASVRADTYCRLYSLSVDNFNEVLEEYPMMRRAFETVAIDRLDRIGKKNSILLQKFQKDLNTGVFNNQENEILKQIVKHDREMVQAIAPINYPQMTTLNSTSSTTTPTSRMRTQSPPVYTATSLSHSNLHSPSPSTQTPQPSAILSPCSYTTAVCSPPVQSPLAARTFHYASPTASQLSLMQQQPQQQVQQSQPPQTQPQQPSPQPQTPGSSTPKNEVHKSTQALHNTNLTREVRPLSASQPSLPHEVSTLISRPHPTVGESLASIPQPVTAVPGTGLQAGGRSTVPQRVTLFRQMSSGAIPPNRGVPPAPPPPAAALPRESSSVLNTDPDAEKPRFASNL
Kind of assay: co-IP.

Results are given in words; binding and its absence hold for the method and conditions named. Binding seen in cells or lysates may run through a third protein. Some binding calls cover weakened binding; strength is not graded here.

B1: SYNGAP1 (protein, UniProt Q96PV0 1-1343)
chain: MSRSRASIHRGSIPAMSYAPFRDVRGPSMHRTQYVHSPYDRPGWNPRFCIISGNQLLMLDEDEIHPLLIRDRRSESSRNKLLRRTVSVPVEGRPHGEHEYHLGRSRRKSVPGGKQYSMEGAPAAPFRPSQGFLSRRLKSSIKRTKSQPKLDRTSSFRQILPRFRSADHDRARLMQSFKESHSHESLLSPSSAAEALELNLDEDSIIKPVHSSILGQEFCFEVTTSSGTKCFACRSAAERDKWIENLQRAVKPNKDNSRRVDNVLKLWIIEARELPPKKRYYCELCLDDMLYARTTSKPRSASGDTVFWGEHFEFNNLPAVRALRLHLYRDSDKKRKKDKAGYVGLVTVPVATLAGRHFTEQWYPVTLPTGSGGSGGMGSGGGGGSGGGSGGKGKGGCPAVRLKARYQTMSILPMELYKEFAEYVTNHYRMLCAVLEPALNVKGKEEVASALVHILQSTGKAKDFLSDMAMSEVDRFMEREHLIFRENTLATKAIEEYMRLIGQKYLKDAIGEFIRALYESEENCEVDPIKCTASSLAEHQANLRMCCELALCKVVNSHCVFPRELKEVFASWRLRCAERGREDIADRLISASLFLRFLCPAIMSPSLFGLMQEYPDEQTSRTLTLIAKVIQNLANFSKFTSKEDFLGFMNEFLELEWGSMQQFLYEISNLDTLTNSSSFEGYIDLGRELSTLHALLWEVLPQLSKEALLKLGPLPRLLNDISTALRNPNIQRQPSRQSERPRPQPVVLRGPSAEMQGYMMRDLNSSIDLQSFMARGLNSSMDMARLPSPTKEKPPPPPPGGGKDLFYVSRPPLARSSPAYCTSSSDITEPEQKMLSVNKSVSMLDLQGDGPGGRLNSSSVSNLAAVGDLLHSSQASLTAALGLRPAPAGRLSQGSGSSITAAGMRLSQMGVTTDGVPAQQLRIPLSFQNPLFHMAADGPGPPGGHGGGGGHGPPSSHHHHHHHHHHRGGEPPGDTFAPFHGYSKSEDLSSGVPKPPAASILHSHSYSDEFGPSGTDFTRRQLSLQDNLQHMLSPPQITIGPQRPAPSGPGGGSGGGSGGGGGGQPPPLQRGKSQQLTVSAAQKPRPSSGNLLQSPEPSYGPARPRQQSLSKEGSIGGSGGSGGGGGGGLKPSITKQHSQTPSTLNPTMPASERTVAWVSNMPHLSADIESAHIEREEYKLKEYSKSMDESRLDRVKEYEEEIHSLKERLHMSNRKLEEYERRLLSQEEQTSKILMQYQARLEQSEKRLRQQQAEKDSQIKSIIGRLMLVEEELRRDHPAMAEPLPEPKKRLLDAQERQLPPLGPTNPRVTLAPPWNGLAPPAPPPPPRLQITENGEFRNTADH
On to B1, for which the binding result was “binds”.

For the origin of these results see article doi:10.1101/2021.10.07.21264568.
